Experimental data reported in publication doi:10.1101/855098.

Protein sequences, listed by entry. Tags and fused reporters are not part of them. Lines headed by an entry give the natural chain unless they say otherwise; changes in a name come on top.
UniProt O80888: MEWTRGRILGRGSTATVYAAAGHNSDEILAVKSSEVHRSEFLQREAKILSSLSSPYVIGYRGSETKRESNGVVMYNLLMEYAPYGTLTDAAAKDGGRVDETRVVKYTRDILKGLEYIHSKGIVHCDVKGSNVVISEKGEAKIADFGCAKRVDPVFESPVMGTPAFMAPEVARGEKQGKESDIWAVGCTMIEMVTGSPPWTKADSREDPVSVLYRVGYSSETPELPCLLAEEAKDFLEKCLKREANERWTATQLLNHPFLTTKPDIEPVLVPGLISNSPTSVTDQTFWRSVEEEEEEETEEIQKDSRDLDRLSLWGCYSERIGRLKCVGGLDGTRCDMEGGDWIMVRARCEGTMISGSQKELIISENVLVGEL
UniProt Q9SND6: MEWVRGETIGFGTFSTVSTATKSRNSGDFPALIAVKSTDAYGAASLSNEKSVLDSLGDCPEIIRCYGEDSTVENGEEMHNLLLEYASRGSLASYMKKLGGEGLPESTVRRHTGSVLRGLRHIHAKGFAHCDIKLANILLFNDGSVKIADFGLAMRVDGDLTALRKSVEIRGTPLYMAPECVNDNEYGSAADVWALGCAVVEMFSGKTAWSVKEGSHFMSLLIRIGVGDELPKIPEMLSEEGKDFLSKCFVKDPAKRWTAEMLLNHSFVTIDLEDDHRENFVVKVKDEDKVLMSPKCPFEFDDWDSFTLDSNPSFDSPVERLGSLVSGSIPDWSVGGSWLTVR

Molecular target: T1, MKK3 (Arabidopsis) (UniProt O80396)
T1 sequence: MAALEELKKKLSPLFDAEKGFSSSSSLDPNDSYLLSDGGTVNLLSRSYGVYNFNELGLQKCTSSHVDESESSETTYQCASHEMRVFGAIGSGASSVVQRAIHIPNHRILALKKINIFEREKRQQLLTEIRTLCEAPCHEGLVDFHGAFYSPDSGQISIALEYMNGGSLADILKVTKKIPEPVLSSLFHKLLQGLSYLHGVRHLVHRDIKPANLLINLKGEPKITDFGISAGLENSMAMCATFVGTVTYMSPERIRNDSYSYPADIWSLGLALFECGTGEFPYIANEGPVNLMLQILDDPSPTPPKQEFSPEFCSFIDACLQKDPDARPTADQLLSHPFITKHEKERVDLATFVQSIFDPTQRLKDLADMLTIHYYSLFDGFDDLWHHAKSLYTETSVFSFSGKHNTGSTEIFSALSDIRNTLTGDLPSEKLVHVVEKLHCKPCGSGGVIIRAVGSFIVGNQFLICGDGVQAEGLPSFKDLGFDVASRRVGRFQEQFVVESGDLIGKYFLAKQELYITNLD
Assay: two-hybrid

Substance | binding
C-terminal truncated form of MAP3K13 (missing its 143 C-terminal amino acids) (Arabidopsis) (domain or fragment) | binds
C-terminal truncated form of MAP3K14 (missing its 116 C-terminal amino acids) (Arabidopsis) (domain or fragment) | binds
MAP3K15 (Arabidopsis) (enzyme) | binds
MAP3K16 (from UniProt F4JVS7) (enzyme) | binds
MAP3K17 (from UniProt O80888) (enzyme) | binds
MAP3K19 (from UniProt Q9FHA5) (enzyme) | binds
MAP3K20 (from UniProt Q9SND6) (enzyme) | binds

These are yes or no findings as the source states them, for the method shown. A result given as binding can be weak or reduced; the word gives no strength.
